Drawing on patent US20200369773A1 (CELDARA MEDICAL, published 2020), this text covers binding for two molecules.

The target in this assay is T1, FITC-recombinant mouse Fn14:human Fc (ENZO ALX-522-036F) (mouse) (UniProt Q9CR75).
T1 sequence (chain, FITC label (site not stated)): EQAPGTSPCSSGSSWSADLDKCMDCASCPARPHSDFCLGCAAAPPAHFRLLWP
Briefly: flow cytometry; transduced mouse T cells stained with FITC-recombinant mouse Fn14:human Fc.

These are yes or no findings as the source states them, for the method shown. Some entries that bind do so weakly or less than the wild type. Tags and fused reporters may be left off the sequences shown.

B1: scFvP3G5VLVH-mCD28H-mCD28TM-mCD28CS-mCD3zICS (anti-Fn14 CAR) (receptor)
chain: DIVLTQSPASLAVSLGQRATISCRANKSVSTSSYSYMHWYQQKPGQPPKLLIKYASNLESGVPARFSGSGSGTDFILNIHPVEEEDAATYYCQHSRELPFTFGSGTKLEIKGGGGSGGGGSGGGGSQVQLQQSGPEVVRPGVSVKISCKGSGYTFTDYGIHWVKQSHAKSLEWIGVISTYNGYTNYNQKFKGKATMTVDKSSSTAYMELARLTSEDSAIYYCARAYYGNLYYAMDYWGQGTSVTVSSIKEKHLCHTQSSPKLFWALVVVAGVLFCYGLLVTVALCVIWTNSRRNRLLQSDYMNMTPRRPGLTRKPYQPYAPARDFAAYRPRAKFSRSAETAANLQDPNQLYNELNLGRREEYDVLEKKRARDPEMGGKQQRRRNPQEGVYNALQKDKMAEAYSEIGTKGERRRGKGHDGLYQGLSTATKDTYDALHMQTLAPR
notes: Chimeric antigen receptor on transduced mouse T cells
For B1, the binding entry is on record as “binds”.

B2: scFvP3G5VHVL-mCD28H-mCD28TM-mCD28CS-mCD3zICS (anti-Fn14 CAR) (receptor)
chain: QVQLQQSGPEVVRPGVSVKISCKGSGYTFTDYGIHWVKQSHAKSLEWIGVISTYNGYTNYNQKFKGKATMTVDKSSSTAYMELARLTSEDSAIYYCARAYYGNLYYAMDYWGQGTSVTVSSGGGGSGGGGSGGGGSDIVLTQSPASLAVSLGQRATISCRANKSVSTSSYSYMHWYQQKPGQPPKLLIKYASNLESGVPARFSGSGSGTDFILNIHPVEEEDAATYYCQHSRELPFTFGSGTKLEIKIKEKHLCHTQSSPKLFWALVVVAGVLFCYGLLVTVALCVIWTNSRRNRLLQSDYMNMTPRRPGLTRKPYQPYAPARDFAAYRPRAKFSRSAETAANLQDPNQLYNELNLGRREEYDVLEKKRARDPEMGGKQQRRRNPQEGVYNALQKDKMAEAYSEIGTKGERRRGKGHDGLYQGLSTATKDTYDALHMQTLAPR
notes: as for B1
B2: the binding result is “binds”.
